According to publication PMC8684776, “Discovery and characterization of potent And‐1 inhibitors for cancer treatment” (Clinical and Translational Medicine, 2021):
Substitutions are numbered along the chain they refer to. Results are given in words; binding and its absence hold for the method and conditions named. Binding seen in cells or lysates may run through a third protein. Some entries that bind do so weakly or less than the wild type. Sequences can lack the tags named with a protein. Values belong to the molecule of their own block, whether it stands above or below them.

Amino acid sequences for entries named in this document (tags omitted).
UniProt Q13620: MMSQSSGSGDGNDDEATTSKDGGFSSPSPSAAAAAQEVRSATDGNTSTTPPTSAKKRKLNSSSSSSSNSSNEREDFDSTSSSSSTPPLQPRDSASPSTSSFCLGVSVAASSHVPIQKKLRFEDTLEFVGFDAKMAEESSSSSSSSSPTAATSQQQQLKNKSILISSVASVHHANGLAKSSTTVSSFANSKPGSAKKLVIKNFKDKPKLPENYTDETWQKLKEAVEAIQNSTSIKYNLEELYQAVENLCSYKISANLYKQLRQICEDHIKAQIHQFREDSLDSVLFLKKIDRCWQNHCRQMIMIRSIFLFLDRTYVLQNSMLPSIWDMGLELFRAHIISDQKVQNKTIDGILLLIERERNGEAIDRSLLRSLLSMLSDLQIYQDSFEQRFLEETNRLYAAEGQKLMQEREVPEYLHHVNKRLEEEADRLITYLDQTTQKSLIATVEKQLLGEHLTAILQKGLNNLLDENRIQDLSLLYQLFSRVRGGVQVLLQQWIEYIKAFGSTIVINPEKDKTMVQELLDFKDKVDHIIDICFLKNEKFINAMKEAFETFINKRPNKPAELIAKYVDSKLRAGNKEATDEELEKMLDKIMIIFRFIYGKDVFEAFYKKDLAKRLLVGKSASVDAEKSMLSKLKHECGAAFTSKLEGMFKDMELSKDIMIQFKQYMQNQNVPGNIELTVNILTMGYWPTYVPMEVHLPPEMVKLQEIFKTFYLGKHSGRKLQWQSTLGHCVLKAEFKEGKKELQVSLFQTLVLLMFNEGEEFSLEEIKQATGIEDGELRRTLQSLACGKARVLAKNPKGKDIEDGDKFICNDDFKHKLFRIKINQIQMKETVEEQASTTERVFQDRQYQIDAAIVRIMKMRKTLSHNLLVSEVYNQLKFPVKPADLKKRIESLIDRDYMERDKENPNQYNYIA

Columns and labels:
[1] = molecular target: T1, FLAG‐And‐1‐K130R (human) (UniProt O75717); experiment: co-IP; FLAG-And-1 or its mutants expressed in cells, endogenous CUL4B detected by immunoblot; cells treated with or without CH3 (also at several concentrations), followed by 10 uM MG132; precipitating antibody not stated for these panels
T1 sequence: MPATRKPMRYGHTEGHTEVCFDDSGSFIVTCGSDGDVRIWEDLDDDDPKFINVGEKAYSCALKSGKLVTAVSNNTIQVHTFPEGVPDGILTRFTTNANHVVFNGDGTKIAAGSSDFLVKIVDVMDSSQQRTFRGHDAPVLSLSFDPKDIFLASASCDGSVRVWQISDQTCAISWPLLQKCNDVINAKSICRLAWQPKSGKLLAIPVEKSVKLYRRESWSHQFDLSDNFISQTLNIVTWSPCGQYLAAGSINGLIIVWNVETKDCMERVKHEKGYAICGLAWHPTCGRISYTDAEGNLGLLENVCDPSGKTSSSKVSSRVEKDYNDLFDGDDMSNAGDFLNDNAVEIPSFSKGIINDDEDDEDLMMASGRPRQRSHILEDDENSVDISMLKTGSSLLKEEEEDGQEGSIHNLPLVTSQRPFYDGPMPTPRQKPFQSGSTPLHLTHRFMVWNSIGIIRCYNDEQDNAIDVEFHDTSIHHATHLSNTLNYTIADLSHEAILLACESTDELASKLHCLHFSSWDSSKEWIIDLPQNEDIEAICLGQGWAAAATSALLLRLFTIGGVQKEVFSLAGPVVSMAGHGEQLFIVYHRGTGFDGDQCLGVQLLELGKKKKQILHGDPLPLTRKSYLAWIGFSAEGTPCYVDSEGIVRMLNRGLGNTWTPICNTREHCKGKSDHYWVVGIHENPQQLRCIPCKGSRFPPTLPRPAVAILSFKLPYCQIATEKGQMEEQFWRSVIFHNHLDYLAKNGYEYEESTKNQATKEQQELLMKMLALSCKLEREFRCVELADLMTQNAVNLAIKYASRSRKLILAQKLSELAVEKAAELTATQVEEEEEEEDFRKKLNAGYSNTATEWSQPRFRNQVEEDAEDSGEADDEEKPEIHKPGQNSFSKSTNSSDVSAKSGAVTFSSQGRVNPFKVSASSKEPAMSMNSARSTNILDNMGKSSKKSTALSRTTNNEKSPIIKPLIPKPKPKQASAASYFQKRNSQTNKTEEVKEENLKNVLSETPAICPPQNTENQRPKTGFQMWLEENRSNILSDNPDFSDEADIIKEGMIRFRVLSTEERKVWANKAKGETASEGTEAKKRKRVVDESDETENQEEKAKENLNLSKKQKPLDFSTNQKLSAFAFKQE

[2] = molecular target: T2, FLAG‐And‐1‐WT (acidic nucleoplasmic DNA‐binding protein 1) (human) (UniProt O75717); experiment: as above
T2 sequence: T1 sequence with R130K

[3] = molecular target: And‐1 (FLAG‐And‐1 and HA‐And‐1 expressed together) (human) (UniProt O75717); experiment: co-IP; U2OS cells transfected with both FLAG-And-1 and HA-And-1; treated with or without CH3, also at several concentrations

binding [1]: binds
binding [2]: binds
Molecule: Cullin 4B (from UniProt Q13620 1-913)

binding [3]: binds
B1: And‐1 (FLAG‐And‐1 and HA‐And‐1 expressed together) (protein, UniProt O75717 1-1129)
chain: T1 sequence with R130K
